{"sequences": {"note": "Sequences of proteins named here, by UniProt entry; tags and fusion partners are left off. A change or cut given only in a name is not applied to a line headed by its entry.", "UniProt Q12952": "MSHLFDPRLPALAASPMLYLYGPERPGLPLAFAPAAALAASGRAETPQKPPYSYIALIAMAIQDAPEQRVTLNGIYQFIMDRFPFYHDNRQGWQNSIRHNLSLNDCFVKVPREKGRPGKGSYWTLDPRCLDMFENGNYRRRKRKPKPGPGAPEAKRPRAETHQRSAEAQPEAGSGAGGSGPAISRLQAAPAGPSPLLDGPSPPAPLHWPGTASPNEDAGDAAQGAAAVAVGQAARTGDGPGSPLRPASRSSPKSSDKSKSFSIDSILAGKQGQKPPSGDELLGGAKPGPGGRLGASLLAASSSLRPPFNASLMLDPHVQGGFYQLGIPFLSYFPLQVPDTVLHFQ", "UniProt Q09028, whole entry": "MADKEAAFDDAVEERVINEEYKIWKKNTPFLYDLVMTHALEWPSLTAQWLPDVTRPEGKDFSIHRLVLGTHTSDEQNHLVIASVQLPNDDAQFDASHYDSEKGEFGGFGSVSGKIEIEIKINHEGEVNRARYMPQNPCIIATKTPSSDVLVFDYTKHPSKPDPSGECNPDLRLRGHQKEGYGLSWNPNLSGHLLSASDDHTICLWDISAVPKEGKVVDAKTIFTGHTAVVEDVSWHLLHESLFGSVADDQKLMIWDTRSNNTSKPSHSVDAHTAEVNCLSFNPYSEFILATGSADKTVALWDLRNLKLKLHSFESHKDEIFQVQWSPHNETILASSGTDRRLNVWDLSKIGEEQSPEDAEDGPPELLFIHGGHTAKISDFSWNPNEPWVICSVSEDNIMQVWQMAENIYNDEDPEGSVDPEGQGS", "UniProt Q03933": "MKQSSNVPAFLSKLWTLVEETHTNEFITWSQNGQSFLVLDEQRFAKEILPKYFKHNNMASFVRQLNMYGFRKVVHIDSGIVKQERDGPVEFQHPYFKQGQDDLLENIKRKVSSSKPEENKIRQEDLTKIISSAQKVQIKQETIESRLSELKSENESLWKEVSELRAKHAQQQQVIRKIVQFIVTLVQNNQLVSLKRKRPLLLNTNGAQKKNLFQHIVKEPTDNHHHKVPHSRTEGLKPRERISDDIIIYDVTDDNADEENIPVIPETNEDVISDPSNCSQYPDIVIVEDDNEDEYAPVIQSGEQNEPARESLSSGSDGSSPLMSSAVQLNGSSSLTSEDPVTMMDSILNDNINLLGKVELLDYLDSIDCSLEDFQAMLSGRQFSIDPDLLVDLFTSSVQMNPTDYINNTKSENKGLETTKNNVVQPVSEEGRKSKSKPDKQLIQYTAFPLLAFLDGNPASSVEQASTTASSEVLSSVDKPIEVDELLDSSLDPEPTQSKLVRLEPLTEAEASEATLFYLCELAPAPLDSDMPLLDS", "UniProt Q12926, whole entry": "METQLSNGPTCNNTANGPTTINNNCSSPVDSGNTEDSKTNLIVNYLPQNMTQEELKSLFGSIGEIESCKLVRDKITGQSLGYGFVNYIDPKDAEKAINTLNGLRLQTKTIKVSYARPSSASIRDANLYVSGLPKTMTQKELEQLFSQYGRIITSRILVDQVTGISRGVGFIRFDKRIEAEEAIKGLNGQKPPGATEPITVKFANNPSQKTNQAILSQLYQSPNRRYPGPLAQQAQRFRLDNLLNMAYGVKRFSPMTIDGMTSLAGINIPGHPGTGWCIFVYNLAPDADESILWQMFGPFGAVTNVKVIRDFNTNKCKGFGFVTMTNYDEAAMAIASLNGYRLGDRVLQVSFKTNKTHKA", "UniProt Q00534, whole entry": "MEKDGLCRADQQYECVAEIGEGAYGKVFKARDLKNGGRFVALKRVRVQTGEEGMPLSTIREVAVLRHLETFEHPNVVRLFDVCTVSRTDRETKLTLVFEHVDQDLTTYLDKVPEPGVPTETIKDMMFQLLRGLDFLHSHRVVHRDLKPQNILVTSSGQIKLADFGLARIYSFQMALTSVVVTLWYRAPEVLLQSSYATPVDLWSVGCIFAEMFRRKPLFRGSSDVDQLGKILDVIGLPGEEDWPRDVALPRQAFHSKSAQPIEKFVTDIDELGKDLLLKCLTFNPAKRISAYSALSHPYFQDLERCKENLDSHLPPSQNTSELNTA", "UniProt Q12904": "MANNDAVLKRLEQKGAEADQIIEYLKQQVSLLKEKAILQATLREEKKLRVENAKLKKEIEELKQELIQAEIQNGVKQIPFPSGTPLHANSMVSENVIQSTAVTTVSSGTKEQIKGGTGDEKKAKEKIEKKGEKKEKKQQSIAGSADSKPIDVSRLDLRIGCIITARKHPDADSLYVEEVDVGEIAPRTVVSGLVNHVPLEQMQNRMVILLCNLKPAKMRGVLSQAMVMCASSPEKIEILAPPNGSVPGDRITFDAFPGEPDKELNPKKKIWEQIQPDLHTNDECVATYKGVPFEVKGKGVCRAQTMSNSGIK", "UniProt Q03164, whole entry": "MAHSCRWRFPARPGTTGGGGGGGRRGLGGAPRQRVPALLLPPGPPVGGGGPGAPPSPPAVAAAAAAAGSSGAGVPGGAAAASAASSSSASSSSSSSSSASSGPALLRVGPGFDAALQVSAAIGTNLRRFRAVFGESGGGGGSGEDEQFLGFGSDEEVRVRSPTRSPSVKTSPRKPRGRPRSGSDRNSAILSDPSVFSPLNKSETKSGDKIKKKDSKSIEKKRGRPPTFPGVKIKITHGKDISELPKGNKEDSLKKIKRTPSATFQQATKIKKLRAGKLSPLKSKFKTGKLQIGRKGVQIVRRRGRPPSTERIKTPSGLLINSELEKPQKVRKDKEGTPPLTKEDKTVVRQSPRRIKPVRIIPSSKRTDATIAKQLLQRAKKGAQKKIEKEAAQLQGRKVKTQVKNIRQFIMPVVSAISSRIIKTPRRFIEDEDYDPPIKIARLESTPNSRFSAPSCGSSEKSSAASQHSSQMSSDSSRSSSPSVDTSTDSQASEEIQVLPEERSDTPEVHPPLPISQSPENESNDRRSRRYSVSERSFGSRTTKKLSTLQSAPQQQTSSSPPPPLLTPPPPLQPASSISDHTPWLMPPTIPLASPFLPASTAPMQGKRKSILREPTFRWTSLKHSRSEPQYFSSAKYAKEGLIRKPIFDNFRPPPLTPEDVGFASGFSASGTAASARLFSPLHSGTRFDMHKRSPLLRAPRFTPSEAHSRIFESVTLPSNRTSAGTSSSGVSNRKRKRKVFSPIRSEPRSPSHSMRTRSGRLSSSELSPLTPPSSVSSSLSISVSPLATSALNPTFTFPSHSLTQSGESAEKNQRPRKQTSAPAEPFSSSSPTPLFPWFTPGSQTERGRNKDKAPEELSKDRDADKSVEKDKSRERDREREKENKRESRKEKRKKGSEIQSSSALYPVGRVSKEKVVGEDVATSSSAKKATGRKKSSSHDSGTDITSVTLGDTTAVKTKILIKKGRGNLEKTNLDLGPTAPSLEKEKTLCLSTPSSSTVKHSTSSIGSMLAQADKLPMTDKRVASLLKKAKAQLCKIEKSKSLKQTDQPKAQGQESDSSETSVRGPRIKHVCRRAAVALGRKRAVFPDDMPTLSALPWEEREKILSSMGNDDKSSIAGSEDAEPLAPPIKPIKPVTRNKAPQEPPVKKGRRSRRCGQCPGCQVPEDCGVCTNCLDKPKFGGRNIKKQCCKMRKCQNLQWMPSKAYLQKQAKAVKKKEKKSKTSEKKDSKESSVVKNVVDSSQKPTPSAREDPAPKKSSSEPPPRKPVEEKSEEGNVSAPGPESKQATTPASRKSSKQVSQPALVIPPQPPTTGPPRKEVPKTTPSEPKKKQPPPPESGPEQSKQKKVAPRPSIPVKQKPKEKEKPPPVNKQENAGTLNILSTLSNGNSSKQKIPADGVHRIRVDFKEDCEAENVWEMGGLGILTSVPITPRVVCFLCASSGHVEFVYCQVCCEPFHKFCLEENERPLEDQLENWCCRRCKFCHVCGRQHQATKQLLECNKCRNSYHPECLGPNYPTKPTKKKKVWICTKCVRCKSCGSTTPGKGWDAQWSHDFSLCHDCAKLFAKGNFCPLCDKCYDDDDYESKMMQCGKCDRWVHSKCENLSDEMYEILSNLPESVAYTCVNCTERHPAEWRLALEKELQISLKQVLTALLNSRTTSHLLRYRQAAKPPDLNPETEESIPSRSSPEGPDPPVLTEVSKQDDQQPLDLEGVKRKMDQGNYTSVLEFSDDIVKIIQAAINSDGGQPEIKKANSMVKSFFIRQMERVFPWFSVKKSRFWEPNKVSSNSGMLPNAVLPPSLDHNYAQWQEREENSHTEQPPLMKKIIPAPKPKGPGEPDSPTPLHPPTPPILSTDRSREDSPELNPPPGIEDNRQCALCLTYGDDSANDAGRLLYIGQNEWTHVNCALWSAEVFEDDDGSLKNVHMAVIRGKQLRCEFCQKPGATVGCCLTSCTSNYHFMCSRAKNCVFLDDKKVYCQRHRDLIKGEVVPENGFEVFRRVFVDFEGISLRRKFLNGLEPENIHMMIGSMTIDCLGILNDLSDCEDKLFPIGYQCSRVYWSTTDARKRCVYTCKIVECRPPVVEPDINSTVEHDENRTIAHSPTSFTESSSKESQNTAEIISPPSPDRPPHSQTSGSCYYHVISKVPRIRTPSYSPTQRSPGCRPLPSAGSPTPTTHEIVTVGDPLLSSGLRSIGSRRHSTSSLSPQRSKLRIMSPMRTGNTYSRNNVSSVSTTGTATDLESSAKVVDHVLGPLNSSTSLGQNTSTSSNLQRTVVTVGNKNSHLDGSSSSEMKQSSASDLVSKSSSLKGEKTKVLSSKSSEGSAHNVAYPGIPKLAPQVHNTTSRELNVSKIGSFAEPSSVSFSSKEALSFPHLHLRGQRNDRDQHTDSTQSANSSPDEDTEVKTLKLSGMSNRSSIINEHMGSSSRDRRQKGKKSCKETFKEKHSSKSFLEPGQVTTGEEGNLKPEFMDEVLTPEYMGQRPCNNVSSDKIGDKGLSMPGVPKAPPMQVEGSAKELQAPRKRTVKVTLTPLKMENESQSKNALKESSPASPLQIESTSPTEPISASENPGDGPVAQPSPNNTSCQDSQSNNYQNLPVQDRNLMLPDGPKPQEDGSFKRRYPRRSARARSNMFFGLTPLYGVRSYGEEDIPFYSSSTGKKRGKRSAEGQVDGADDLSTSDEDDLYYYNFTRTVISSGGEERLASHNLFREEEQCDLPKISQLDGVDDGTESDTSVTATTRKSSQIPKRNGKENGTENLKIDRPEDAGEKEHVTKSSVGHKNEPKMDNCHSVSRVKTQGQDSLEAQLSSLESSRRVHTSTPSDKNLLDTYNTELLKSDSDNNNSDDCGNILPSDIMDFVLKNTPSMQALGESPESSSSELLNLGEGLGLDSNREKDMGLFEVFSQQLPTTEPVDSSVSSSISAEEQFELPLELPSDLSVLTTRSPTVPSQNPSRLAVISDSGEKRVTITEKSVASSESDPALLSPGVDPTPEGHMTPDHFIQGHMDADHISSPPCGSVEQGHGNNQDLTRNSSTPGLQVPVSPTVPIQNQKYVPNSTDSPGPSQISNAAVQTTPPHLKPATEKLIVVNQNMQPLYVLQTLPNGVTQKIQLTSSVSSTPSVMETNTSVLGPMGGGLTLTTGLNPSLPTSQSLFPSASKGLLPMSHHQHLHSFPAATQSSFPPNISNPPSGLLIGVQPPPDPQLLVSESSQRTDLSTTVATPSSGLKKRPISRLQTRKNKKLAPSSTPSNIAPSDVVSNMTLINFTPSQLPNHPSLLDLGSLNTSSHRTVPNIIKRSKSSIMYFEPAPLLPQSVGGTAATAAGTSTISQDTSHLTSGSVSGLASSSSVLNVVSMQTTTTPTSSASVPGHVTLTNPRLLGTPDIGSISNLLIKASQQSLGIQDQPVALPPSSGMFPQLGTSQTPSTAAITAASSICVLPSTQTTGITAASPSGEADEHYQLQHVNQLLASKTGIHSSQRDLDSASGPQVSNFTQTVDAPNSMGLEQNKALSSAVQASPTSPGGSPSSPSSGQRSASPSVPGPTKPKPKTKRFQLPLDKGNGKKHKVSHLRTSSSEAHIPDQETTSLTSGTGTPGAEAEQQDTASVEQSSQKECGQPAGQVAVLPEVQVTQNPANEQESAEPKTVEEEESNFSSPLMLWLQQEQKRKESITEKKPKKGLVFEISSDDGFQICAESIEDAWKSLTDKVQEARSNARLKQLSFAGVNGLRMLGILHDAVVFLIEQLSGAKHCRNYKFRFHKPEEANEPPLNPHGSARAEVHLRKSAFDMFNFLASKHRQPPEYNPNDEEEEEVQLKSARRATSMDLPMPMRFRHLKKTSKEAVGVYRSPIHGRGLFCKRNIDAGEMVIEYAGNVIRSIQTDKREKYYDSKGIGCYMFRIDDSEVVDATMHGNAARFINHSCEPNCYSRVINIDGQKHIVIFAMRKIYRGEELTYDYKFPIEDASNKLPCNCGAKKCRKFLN"}, "source": "the supplement of paper PMC12819154", "about": "“High-throughput peptide-centric local stability assay extends protein–ligand identification to membrane proteins, tissues and bacteria” (Nature Structural & Molecular Biology, 2025)", "note": "This is one part of the list. Small differences around the control level are noise.", "data": [{"compound": "CN[C@@H]1C[C@H]2O[C@@](C)([C@@H]1OC)n1c3ccccc3c3c4c(c5c6ccccc6n2c5c31)C(=O)NC4 [staurosporine]", "experiment": "log2 fold change of tryptic peptide abundance, ligand vs vehicle (limited proteolysis) (log2 ratio); higher = more trypsin-susceptible (destabilized)", "conditions": "ligand concentration: 20 uM; sample: K562 cleared lysate; digestion: 4 min, 22 C (HT-PELSA RT4min, Orbitrap Astral)", "values": [{"target": "ASPH (peptide sequence: GLFLPEDENLR, peptide start residue: 610) (UniProt Q12797)", "log2 fold change": -0.255}, {"target": "MGAT5 (peptide sequence: NTDFFIGKPTLR, peptide start residue: 547) (UniProt Q09328)", "log2 fold change": 0.287}, {"target": "UniProt Q12952 (peptide sequence: KPKPGPGAPEAK, peptide start residue: 144)", "log2 fold change": 0.253}, {"target": "UniProt Q09028 (peptide sequence: EAAFDDAVEER, peptide start residue: 5)", "log2 fold change": -0.1}, {"target": "USP4 (peptide sequence: RDDEFYK, peptide start residue: 923) (UniProt Q13107)", "log2 fold change": 0.612}, {"target": "HSF2 (peptide sequence: QGQDDLLENIK, peptide start residue: 98) (UniProt Q03933)", "log2 fold change": -0.321}, {"target": "ELAVL2 (peptide sequence: AINTLNGLR, peptide start residue: 77) (UniProt Q12926)", "log2 fold change": 0.0452}, {"target": "CDK6 (peptide sequence: DMMFQLLR, peptide start residue: 124) (UniProt Q00534)", "log2 fold change": -0.296}, {"target": "UniProt Q12904 (peptide sequence: ANNDAVLK, peptide start residue: 2)", "log2 fold change": -0.475}, {"target": "SOS1 (peptide sequence: FYSQQMK, peptide start residue: 407) (UniProt Q07889)", "log2 fold change": -0.31}, {"target": "UniProt Q03164 (peptide sequence: VKTQGQDSLEAQLSSLESSRR, peptide start residue: 2789)", "log2 fold change": -0.36}]}]}
